# Data from the supplement of paper PMC12823440, “Inhibitors supercharge kinase turnover through native proteolytic circuits” (Nature, 2025).
# Protein sequences, listed by entry. Tags and fused reporters are not part of them. Lines headed by an entry give the natural chain unless they say otherwise; changes in a name come on top.
# UniProt Q13555: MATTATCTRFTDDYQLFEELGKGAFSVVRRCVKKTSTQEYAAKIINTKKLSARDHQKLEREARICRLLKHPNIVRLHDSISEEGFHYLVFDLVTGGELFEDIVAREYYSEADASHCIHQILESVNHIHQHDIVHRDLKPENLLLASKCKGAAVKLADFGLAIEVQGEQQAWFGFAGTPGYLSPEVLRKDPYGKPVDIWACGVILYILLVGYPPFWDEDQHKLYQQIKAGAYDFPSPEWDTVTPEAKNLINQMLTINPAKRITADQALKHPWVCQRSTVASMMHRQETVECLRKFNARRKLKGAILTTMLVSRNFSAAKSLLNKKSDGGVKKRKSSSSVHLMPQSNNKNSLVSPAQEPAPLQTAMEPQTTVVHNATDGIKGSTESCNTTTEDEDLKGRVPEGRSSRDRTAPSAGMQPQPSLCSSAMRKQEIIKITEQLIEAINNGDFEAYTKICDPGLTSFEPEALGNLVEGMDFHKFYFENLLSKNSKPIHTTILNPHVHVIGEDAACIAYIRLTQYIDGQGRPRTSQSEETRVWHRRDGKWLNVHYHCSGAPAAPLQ
# UniProt Q15131: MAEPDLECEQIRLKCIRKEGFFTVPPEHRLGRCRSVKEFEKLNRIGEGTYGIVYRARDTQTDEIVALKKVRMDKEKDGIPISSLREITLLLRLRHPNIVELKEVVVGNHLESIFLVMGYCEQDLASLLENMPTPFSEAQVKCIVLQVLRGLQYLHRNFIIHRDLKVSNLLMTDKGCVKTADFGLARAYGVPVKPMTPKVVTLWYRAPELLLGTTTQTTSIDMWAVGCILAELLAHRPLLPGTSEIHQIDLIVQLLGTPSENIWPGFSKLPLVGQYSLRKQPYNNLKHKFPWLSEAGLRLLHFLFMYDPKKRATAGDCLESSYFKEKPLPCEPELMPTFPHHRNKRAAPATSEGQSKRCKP
# UniProt Q00526: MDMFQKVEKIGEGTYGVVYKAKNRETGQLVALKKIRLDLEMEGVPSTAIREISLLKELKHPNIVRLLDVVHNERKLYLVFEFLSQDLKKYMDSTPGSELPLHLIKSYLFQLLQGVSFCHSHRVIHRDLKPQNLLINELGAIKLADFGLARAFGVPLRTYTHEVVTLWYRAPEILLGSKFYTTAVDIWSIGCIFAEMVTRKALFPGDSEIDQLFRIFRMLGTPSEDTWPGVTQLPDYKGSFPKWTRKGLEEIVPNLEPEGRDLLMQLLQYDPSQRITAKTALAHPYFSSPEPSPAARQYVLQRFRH
# UniProt Q00535, whole entry, looked up: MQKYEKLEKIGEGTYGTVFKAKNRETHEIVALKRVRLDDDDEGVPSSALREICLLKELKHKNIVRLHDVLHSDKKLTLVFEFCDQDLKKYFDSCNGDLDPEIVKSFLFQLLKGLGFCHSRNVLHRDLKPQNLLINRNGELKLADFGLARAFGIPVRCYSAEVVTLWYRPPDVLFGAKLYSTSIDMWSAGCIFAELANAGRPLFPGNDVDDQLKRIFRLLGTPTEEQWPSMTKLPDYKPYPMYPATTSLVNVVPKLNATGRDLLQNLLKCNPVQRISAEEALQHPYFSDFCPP
# UniProt Q00534, whole entry: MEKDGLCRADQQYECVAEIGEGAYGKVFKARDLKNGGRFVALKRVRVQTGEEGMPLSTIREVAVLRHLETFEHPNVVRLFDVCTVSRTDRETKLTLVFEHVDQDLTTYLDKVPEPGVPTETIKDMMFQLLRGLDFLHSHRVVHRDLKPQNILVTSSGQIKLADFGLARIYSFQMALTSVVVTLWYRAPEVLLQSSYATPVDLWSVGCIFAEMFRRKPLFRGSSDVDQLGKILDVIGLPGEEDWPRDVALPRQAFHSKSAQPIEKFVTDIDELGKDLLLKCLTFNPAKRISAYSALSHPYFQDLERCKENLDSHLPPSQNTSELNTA
# UniProt O96017, whole entry: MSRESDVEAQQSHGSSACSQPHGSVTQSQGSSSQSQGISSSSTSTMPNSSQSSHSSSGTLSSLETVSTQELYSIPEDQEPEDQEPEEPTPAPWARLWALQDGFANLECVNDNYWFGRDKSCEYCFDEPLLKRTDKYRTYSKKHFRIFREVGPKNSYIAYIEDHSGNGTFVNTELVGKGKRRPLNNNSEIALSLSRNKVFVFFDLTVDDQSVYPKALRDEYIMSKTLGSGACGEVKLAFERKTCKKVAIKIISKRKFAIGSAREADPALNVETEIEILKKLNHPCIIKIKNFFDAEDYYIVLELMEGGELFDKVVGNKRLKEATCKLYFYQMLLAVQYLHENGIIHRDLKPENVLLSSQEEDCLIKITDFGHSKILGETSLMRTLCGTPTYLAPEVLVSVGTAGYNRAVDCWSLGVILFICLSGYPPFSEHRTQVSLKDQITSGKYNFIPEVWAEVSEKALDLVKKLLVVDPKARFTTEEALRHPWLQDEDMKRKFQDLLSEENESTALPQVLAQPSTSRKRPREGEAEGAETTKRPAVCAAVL
# UniProt P07333, whole entry: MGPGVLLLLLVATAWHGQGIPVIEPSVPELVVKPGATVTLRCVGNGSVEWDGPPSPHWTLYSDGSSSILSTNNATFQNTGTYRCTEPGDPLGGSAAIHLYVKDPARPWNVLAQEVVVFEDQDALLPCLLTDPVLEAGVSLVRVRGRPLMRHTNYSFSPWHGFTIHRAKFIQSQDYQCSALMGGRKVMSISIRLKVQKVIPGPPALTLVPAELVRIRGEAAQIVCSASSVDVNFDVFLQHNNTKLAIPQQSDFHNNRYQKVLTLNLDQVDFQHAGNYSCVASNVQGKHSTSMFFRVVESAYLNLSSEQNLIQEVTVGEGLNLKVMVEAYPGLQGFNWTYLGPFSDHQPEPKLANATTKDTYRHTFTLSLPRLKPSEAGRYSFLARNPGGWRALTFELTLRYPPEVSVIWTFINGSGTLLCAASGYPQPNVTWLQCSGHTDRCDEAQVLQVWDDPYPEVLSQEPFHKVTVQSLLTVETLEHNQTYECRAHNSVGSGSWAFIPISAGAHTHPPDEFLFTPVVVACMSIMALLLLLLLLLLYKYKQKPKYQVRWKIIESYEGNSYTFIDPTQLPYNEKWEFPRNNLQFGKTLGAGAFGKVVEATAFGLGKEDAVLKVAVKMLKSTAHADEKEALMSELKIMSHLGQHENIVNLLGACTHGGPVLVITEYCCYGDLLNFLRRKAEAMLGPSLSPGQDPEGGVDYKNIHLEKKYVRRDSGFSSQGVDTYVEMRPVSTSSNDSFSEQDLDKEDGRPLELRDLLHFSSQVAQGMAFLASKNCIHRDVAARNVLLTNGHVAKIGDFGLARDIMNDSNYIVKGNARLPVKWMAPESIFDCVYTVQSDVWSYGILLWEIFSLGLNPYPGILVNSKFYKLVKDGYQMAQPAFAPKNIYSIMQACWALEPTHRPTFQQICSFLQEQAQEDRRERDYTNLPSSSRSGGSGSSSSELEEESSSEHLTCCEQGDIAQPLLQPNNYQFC
# UniProt P48730: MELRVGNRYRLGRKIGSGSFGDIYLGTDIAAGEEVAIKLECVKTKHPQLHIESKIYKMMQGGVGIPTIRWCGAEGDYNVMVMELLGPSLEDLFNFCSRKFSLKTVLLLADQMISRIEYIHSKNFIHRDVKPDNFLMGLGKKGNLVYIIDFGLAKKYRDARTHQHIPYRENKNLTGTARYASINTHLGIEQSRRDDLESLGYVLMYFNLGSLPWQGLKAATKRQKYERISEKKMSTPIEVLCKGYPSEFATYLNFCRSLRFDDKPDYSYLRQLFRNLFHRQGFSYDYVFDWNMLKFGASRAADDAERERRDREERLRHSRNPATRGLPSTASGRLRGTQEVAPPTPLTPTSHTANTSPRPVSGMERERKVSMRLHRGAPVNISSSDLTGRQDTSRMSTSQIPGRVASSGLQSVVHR
# UniProt Q08345: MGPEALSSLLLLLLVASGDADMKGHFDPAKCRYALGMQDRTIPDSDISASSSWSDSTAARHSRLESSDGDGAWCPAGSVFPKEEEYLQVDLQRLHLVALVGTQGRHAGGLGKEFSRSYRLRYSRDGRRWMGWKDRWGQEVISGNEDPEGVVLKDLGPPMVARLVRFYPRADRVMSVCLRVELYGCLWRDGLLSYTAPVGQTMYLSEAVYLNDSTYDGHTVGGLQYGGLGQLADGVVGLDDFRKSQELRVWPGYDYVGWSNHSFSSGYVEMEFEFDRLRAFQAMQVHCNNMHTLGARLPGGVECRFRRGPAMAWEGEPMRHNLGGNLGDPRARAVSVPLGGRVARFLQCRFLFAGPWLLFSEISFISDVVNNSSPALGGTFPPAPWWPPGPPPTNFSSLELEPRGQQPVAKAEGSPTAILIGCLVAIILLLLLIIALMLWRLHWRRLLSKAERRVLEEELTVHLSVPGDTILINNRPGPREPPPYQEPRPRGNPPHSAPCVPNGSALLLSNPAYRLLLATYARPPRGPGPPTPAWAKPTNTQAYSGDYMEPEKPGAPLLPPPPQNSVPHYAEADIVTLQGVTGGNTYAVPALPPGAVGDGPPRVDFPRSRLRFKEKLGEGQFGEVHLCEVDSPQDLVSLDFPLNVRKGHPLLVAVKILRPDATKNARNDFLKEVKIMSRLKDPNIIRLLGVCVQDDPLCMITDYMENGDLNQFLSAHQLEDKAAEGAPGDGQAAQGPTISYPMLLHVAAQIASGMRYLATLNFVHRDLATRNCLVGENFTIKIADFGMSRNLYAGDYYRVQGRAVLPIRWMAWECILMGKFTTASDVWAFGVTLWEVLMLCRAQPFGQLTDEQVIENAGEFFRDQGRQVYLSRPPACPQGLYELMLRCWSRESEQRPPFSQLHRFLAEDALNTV
# UniProt Q9Y463, whole entry, looked up: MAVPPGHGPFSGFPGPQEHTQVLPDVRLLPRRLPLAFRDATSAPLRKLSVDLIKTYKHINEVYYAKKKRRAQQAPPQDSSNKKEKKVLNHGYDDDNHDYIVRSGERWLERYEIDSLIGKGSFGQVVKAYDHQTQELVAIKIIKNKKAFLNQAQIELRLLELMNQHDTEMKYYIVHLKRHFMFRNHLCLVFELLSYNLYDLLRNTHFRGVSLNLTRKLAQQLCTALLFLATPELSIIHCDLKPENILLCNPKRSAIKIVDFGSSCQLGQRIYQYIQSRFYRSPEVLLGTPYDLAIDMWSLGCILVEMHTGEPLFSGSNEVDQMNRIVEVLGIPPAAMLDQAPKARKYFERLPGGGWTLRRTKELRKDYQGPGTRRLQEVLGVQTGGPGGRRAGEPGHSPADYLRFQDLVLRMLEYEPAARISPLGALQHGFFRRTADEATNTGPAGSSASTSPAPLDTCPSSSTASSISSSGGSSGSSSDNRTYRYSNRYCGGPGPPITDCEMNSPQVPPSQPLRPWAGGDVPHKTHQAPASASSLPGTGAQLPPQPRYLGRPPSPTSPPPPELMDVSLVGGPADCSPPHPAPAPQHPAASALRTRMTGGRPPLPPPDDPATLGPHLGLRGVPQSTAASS
# UniProt Q92630: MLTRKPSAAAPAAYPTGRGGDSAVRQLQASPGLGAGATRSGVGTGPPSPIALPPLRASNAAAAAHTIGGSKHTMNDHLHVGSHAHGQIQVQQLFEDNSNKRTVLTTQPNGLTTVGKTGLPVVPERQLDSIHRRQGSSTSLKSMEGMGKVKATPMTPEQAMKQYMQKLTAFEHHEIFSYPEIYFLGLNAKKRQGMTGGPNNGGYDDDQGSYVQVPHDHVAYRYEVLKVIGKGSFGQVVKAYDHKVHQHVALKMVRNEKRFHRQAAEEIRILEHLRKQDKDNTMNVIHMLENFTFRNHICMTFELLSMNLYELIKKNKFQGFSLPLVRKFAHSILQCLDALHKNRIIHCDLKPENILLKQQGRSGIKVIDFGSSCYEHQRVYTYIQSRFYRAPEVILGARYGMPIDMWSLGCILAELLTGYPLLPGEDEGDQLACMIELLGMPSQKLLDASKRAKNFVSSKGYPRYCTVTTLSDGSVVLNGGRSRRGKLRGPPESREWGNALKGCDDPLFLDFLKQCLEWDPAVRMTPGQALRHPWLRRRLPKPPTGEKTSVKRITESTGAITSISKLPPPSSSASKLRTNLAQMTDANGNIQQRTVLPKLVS
# UniProt P48729: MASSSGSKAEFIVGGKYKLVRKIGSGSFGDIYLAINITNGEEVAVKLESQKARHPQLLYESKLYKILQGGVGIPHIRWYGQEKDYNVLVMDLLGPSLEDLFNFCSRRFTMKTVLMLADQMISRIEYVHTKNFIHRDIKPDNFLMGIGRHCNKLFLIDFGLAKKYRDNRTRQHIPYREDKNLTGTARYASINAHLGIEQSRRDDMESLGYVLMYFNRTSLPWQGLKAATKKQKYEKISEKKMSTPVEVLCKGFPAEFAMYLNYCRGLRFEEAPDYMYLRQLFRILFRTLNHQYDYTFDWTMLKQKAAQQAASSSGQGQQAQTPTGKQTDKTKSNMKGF
# Counter-ions that a name gives are not always drawn. Some of the results follow. Hit calls seldom repeat between salt and free forms of one compound.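 Kinases, fused to nanoluciferase, were expressed in K562 cells; luminescence was measured every 4 h from 2 to 18 h as percent of control (DMSO = 100%, positive control = 0%). A time point is decreased if signal falls significantly (2 sigma). Hits were called by the authors by a rule that is not shown; the count of time points alone does not decide it.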
# Legend:
# Test in all cases: number of time points (of 5) at which kinase-Nluc abundance scored as decreased, DMSO-normalised (count); higher = more persistent destabilization
# Conditions in all cases: K562; 2-18 h
# CAMK2A = CAMK2A (UniProt Q9UQM7)
# CAMK2G = CAMK2G (UniProt Q13555)
# CDK10 = CDK10 (UniProt Q15131)
# CDK2 = CDK2 (UniProt P24941)
# CDK3 = CDK3 (UniProt Q00526)
# CDK5 = CDK5 (UniProt Q00535)
# CDK6 = CDK6 (UniProt Q00534)
# CHEK2 = CHEK2 (UniProt O96017)
# CSF1R = CSF1R (UniProt P07333)
# CSK = CSK (UniProt P41240)
# CSNK1D = CSNK1D (UniProt P48730)
# DDR1 = DDR1 (UniProt Q08345)
# DYRK1B = DYRK1B (UniProt Q9Y463)
# DYRK2 = DYRK2 (UniProt Q92630)
# CSNK1A1 = CSNK1A1 (UniProt P48729)
# EGFR = EGFR (UniProt P00533)
# EGFR_G719S = EGFR_G719S (UniProt P00533)
# EGFR_G719S_T790M = EGFR_G719S_T790M (UniProt P00533)
# EGFR_L718V = EGFR_L718V (UniProt P00533)
# EGFR_L858R = EGFR_L858R (UniProt P00533)
SMILES,number of time points (CAMK2A),number of time points (CAMK2G),number of time points (CDK10),number of time points (CDK2),number of time points (CDK3),number of time points (CDK5),number of time points (CDK6),number of time points (CHEK2),number of time points (CSF1R),number of time points (CSK),number of time points (CSNK1D),number of time points (DDR1),number of time points (DYRK1B),number of time points (DYRK2),number of time points (CSNK1A1),number of time points (EGFR),number of time points (EGFR_G719S),number of time points (EGFR_G719S_T790M),number of time points (EGFR_L718V),number of time points (EGFR_L858R)
CCc1nc(-c2cccc(C)c2)c(-c2ccnc(NC(=O)c3ccccc3)c2)s1 (10 µM),0,0,0,0,0,0,0,0,0,0,0,0,0,0,,,,,,
C/C=C(/C)C(=O)O[C@H]1Cc2cc3ccc(=O)oc3cc2OC1(C)C [Decursinol angelate] (10 µM),0,0,0,0,0,0,0,0,0,0,0,0,0,0,0,0,0,0,0,0
Cc1ccc(S(=O)(=O)Nc2nc3ccccc3nc2Nc2ccc3nsnc3c2)cc1 [Pilaralisib analogue] (10 µM),0,0,5,0,0,0,0,0,0,0,0,0,0,5,0,0,0,0,0,5
CC(=O)NCC(=O)N1[C@@H]2CC[C@H]1c1ccc(Nc3ncc(C(F)(F)F)c(NC4CCC4)n3)cc12 (2.5 µM),0,2,0,0,0,0,0,2,3,0,,4,0,4,0,,,,,
COc1ccc(NC(=O)N2CCN(c3nc(N)nc4c3cnn4C)[C@@H](C)C2)c(C)c1 (10 µM),0,0,0,0,0,0,0,0,0,0,0,0,0,0,0,0,0,0,0,0
CN(c1ncccc1CNc1nc(Nc2ccc3c(c2)CC(=O)N3)ncc1C(F)(F)F)S(C)(=O)=O (2.5 µM),0,0,0,0,0,0,0,0,0,0,0,3,0,1,,,,,,
COc1cc(Nc2ncc3c(n2)-c2ccc(Cl)cc2C(c2c(F)cccc2OC)=NC3)ccc1C(=O)O [Alisertib] (2.5 µM),0,0,0,0,0,1,0,0,0,0,0,1,0,0,,,,,,
O=C(Nc1cc(C(F)(F)F)ccc1N1CCN(Cc2ccccn2)CC1)c1ccc(-c2ccncc2)o1 (10 µM),0,0,0,0,0,0,0,0,0,0,0,0,0,0,0,0,0,0,0,0
C=CC(=O)Nc1cccc(Nc2nc(Nc3ccc(OCCOC)cc3)ncc2F)c1 [Spebrutinib] (10 µM),0,0,0,0,0,0,0,0,0,0,0,0,0,0,0,0,0,0,0,0
Cn1nc(C(C)(C)C)cc1NC(=O)Nc1ccc(Oc2ccncc2)cc1 (10 µM),0,0,0,0,0,0,0,0,1,0,0,3,0,4,0,0,0,3,0,0
Cc1c(C(=O)N2CCOc3ccc(-c4ccc(N)nc4)cc3C2)ccc(S(C)(=O)=O)c1F (10 µM),0,0,0,0,0,0,0,0,0,0,,0,0,2,0,,,,,
CCn1c(=O)c2cc(C(N)=O)c(N)nc2n(C2CC2)c1=O (10 µM),0,0,0,0,0,0,0,0,0,0,0,0,0,0,0,0,0,0,0,0
Cc1cc(C)c(/C=C2\C(=O)Nc3ccccc32)[nH]1 [Semaxinib] (10 µM),0,0,0,0,0,0,0,0,0,0,0,0,0,0,,,,,,
C=CC(=O)N1CCN(CCCn2c(=O)c(-c3c(Cl)c(OC)cc(OC)c3Cl)cc3cnc(NC)nc32)CC1 (10 µM),0,0,0,0,0,0,0,0,0,0,0,0,0,0,0,0,0,0,0,0
Cc1ccc2c(Nc3ccc(Cl)cc3)nccc2c1Nc1ncccc1-c1ncnc2nc[nH]c12 [Raf inhibitor 1] (2.5 µM),0,0,0,0,0,0,0,0,0,0,0,0,0,0,0,0,0,0,0,0
Cc1c[nH]c2ccccc12 [Skatole] (10 µM),0,0,0,0,0,0,0,0,0,0,0,0,0,0,0,0,0,0,0,0
COc1cc(N2CCC(N)CC2)ccc1Nc1ncc(Cl)c(-c2c[nH]c3ccccc23)n1 (2.5 µM),0,0,0,0,0,0,0,0,0,0,0,0,0,0,0,0,0,0,0,0
Cc1c(NC(=O)c2cc3c(s2)CCCC3)cccc1-c1cn(C)c(=O)c(Nc2ccc([C@@H]3C(=O)N(C)CCN3C)cc2)n1 (10 µM),0,0,0,0,0,0,0,0,0,0,0,0,0,0,0,0,0,0,0,0
Cc1nc(N)sc1-c1ccnc(Nc2ccc(N3CCOCC3)cc2)n1 (10 µM),0,0,0,0,0,0,0,0,0,0,,0,0,0,1,,,,,
O=C([O-])c1ccccc1O.[Na+] [Sodium Salicylate] (10 µM),0,0,0,0,0,0,0,0,0,0,0,0,0,0,0,0,0,0,0,0
CNC(=O)c1ccccc1Nc1nc(Nc2ccc(N3CCOCC3)cc2OC)ncc1Cl (2.5 µM),0,0,0,0,0,0,0,0,0,0,0,0,0,0,,,,,,
CN(C)C(=O)/C(C#N)=C/c1ccc(-c2nc3cnc4[nH]ccc4c3n2C2CCCCC2)o1 (10 µM),0,0,0,0,0,0,0,0,0,0,0,,0,0,0,0,0,0,0,0
CC(C)(C#N)c1ccc(N2C(=O)OCc3cnc4ccc(-c5cnc6ccccc6c5)cc4c32)cc1 (2.5 µM),0,0,0,0,0,0,0,0,0,0,0,0,0,0,0,0,3,0,0,0
CN1CCN(c2ccc(Nc3cc(-c4cccc(-n5ccc6cc(C7CC7)cc(F)c6c5=O)c4CO)cn(C)c3=O)nc2)CC1 (2.5 µM),0,0,0,0,0,0,2,0,0,0,0,0,0,0,0,0,0,0,0,0
C=CC(=O)N[C@H]1COC[C@H]1Nc1ncc2cc(-c3c(Cl)c(OC)cc(OC)c3Cl)c(=O)n(C)c2n1 (10 µM),0,0,0,0,0,0,0,0,0,0,0,0,0,0,0,0,0,0,0,0
COc1ccc2c(NC(=O)Nc3cccc(C(F)(F)F)n3)ccnc2c1 (10 µM),0,0,0,0,0,0,0,0,0,0,,0,0,0,,,,,,
COc1cc(C(=O)NC2CCN(C)CC2)c(F)cc1Nc1ncc2c(n1)N(C1CCCC1)CC(F)(F)C(=O)N2C [TAK-960 (dihydrochloride)] (2.5 µM),0,0,0,0,0,0,0,0,0,0,0,0,0,0,0,0,0,0,0,0

# A different layout for part of the listing above:
SMILES	number of time points (CAMK2A)	number of time points (CAMK2G)	number of time points (CDK10)	number of time points (CDK2)	number of time points (CDK3)	number of time points (CDK5)	number of time points (CDK6)	number of time points (CHEK2)	number of time points (CSF1R)	number of time points (CSK)	number of time points (CSNK1D)	number of time points (DDR1)	number of time points (DYRK1B)	number of time points (DYRK2)	number of time points (CSNK1A1)	number of time points (EGFR)	number of time points (EGFR_G719S)	number of time points (EGFR_G719S_T790M)	number of time points (EGFR_L718V)	number of time points (EGFR_L858R)
C=CC(=O)Nc1cccc(Nc2nc(Nc3ccc(OCCOC)cc3)ncc2F)c1 [Spebrutinib] (10 µM)	0	0	0	0	0	0	0	0	0	0	0	0	0	0	0	0	0	0	0	0
Cn1nc(C(C)(C)C)cc1NC(=O)Nc1ccc(Oc2ccncc2)cc1 (10 µM)	0	0	0	0	0	0	0	0	1	0	0	3	0	4	0	0	0	3	0	0
